Values quoted from earlier work as cited in patent US20060241183A1, “Compositions and methods of using D-DOPA to treat Parkinson's disease” (priority 2004, published 2006).
At least one structure is not confirmed: it was looked up by name or label, or the drawing left a doubt.

Conditions: cited from earlier work

O=[N+]([O-])c1cc(O)c(O)c([N+](=O)[O-])c1 [DNC, dinitrocatechol]
penetration of the blood-brain barrier / access to the brain: penetrate the blood-brain barrier
